For one molecule, binding results are on record in paper PMC5472764.

This assay has as its target T1, Flag-tagged Tespa1 in Jurkat cells (J-Tespa1) (mouse) (UniProt Q3U132).
T1 sequence: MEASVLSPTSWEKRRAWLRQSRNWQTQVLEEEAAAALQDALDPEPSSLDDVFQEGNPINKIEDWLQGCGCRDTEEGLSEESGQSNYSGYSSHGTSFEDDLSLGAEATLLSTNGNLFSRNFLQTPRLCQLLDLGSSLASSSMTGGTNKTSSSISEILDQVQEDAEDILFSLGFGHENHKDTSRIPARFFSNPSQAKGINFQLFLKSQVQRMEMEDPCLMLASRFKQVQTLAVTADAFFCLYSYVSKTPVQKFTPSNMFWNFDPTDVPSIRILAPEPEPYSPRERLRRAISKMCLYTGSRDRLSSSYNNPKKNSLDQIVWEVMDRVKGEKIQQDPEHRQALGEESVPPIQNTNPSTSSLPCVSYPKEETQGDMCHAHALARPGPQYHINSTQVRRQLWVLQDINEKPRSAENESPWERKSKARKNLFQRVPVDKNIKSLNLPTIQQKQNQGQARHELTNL
Nature of the assay: co-IP; Jurkat cells stably expressing Flag-tagged Tespa1 or Tespa1-F187A/F188A, unstimulated or stimulated with anti-CD3 and anti-CD28 for 5 or 10 min; NP-40 lysis buffer; anti-Flag beads; blots for the endogenous partner.

These are yes or no findings as the source states them, for the method shown. Binding seen in cells or lysates may run through a third protein. Some entries that bind do so weakly or less than the wild type. Where a sequence is shown, tags or fusion partners need not be part of it.

B1: PLC-γ1, endogenous in Jurkat cells (enzyme, UniProt P19174 1-1290)
chain: MAGAASPCANGCGPGAPSDAEVLHLCRSLEVGTVMTLFYSKKSQRPERKTFQVKLETRQITWSRGADKIEGAIDIREIKEIRPGKTSRDFDRYQEDPAFRPDQSHCFVILYGMEFRLKTLSLQATSEDEVNMWIKGLTWLMEDTLQAPTPLQIERWLRKQFYSVDRNREDRISAKDLKNMLSQVNYRVPNMRFLRERLTDLEQRSGDITYGQFAQLYRSLMYSAQKTMDLPFLEASTLRAGERPELCRVSLPEFQQFLLDYQGELWAVDRLQVQEFMLSFLRDPLREIEEPYFFLDEFVTFLFSKENSVWNSQLDAVCPDTMNNPLSHYWISSSHNTYLTGDQFSSESSLEAYARCLRMGCRCIELDCWDGPDGMPVIYHGHTLTTKIKFSDVLHTIKEHAFVASEYPVILSIEDHCSIAQQRNMAQYFKKVLGDTLLTKPVEISADGLPSPNQLKRKILIKHKKLAEGSAYEEVPTSMMYSENDISNSIKNGILYLEDPVNHEWYPHYFVLTSSKIYYSEETSSDQGNEDEEEPKEVSSSTELHSNEKWFHGKLGAGRDGRHIAERLLTEYCIETGAPDGSFLVRESETFVGDYTLSFWRNGKVQHCRIHSRQDAGTPKFFLTDNLVFDSLYDLITHYQQVPLRCNEFEMRLSEPVPQTNAHESKEWYHASLTRAQAEHMLMRVPRDGAFLVRKRNEPNSYAISFRAEGKIKHCRVQQEGQTVMLGNSEFDSLVDLISYYEKHPLYRKMKLRYPINEEALEKIGTAEPDYGALYEGRNPGFYVEANPMPTFKCAVKALFDYKAQREDELTFIKSAIIQNVEKQEGGWWRGDYGGKKQLWFPSNYVEEMVNPVALEPEREHLDENSPLGDLLRGVLDVPACQIAIRPEGKNNRLFVFSISMASVAHWSLDVAADSQEELQDWVKKIREVAQTADARLTEGKIMERRKKIALELSELVVYCRPVPFDEEKIGTERACYRDMSSFPETKAEKYVNKAKGKKFLQYNRLQLSRIYPKGQRLDSSNYDPLPMWICGSQLVALNFQTPDKPMQMNQALFMTGRHCGYVLQPSTMRDEAFDPFDKSSLRGLEPCAISIEVLGARHLPKNGRGIVCPFVEIEVAGAEYDSTKQKTEFVVDNGLNPVWPAKPFHFQISNPEFAFLRFVVYEEDMFSDQNFLAQATFPVKGLKTGYRAVPLKNNYSEDLELASLLIKIDIFPAKENGDLSPFSGTSLRERGSDASGQLFHGRAREGSFESRYQQPFEDFRISQEHLADHFDSRERRAPRRTRVNGDNRL
In the case of B1, the binding result was “binds”.
